Measurements reported in PubChem BioAssay AID1259405 (NCATS, 2018)
Purpose: 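Silenced genes that increase secreted GFP made by CHO cells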 (primary screen). Cell system: Chinese hamster CHO-K1 ovary cells with stable secreted eGFP expression. Knock-down reagent: single siRNA against mouse genes, 0.8 pmol siRNA per well (2 µl of 400 nM stock). Duration: 3 days. Read-out: 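Percent of the per-plate non-targeting control median for intracellular GFP per well by laser scanning cytometry and for cell viability by ATP luminescence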. Reading the numbers: GFP, % of control: higher = more GFP per well, higher productivity; viability (ATP), % of control: higher = more viable cells (more ATP). Call rule: 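Called active when intracellular GFP, relative to negative control, is at or above 120%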.
This is a random part of about 50,000 reagents tested. About 4,000 of them (8%) count as active. 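Mouse siRNA library applied to hamster cells; one well for each siRNA.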 A number with no mark means an inactive call. The numbers tell different reagents against one gene apart.

For Gstt3 (glutathione S-transferase, theta 3) #1, the values are GFP, % of control 120 (active); viability (ATP), % of control 110. Gstt3 (glutathione S-transferase, theta 3) #2 scored GFP, % of control 62.4; viability (ATP), % of control 94.6. With knock-down of Gstt3 (glutathione S-transferase, theta 3) #3 the results were GFP, % of control 59.6; viability (ATP), % of control 30.5. For Esrrg (estrogen-related receptor gamma) #1, the entry reads GFP, % of control 57.7; viability (ATP), % of control 38. Esrrg (estrogen-related receptor gamma) #2 gave GFP, % of control 29.3; viability (ATP), % of control 48.3. After knock-down of Usp12 (ubiquitin specific peptidase 12) #1 the results were GFP, % of control 73.1; viability (ATP), % of control 106.

Against Usp12 (ubiquitin specific peptidase 12) #2, the values are GFP, % of control 53.5; viability (ATP), % of control 55.5. For Usp12 (ubiquitin specific peptidase 12) #3 the deposit lists GFP, % of control 52.5; viability (ATP), % of control 64. With knock-down of Aox3 (aldehyde oxidase 3) #1, the screen gave GFP, % of control 66.3; viability (ATP), % of control 69.3. For Aox3 (aldehyde oxidase 3) #2, the entry reads GFP, % of control 68; viability (ATP), % of control 71.2. Aox3 (aldehyde oxidase 3) #3 scored GFP, % of control 80.3; viability (ATP), % of control 89.8.

Records above marked active:
Gstt3 (glutathione S-transferase, theta 3) #1 — GFP, % of control: 120 (active); viability (ATP), % of control: 110

The list goes on:
With knock-down of Hikeshi (heat shock protein nuclear import factor) #1, the record shows GFP, % of control 122 (active); viability (ATP), % of control 110. For Hikeshi (heat shock protein nuclear import factor) #2, the values are GFP, % of control 95.6; viability (ATP), % of control 65. With knock-down of Hikeshi (heat shock protein nuclear import factor) #3, the record shows GFP, % of control 132 (active); viability (ATP), % of control 80.4. Klc1 (kinesin light chain 1) #1 scored GFP, % of control 100; viability (ATP), % of control 72.3. Knock-down of Klc1 (kinesin light chain 1) #2 came out at: GFP, % of control 60.6; viability (ATP), % of control 67. Silencing of Klc1 (kinesin light chain 1) #3 resulted in: GFP, % of control 65.5; viability (ATP), % of control 58.6.

Smim7 (small integral membrane protein 7) #1 showed GFP, % of control 92.8; viability (ATP), % of control 79.5. For Smim7 (small integral membrane protein 7) #2 the deposit lists GFP, % of control 59.1; viability (ATP), % of control 67.6. Depletion of Smim7 (small integral membrane protein 7) #3 came out at: GFP, % of control 73.4; viability (ATP), % of control 69.2. For Tmem138 (transmembrane protein 138) #1 the deposit lists GFP, % of control 56.4; viability (ATP), % of control 47.9. Tmem138 (transmembrane protein 138) #2 showed GFP, % of control 97.9; viability (ATP), % of control 74.5. For Tmem138 (transmembrane protein 138) #3, the entry reads GFP, % of control 85.3; viability (ATP), % of control 73.3.

After knock-down of 2610028H24Rik (RIKEN cDNA 2610028H24 gene) #1 the results were GFP, % of control 78.8; viability (ATP), % of control 60.7. With knock-down of 2610028H24Rik (RIKEN cDNA 2610028H24 gene) #2, the record shows GFP, % of control 67.6; viability (ATP), % of control 40.7. Knock-down of 2610028H24Rik (RIKEN cDNA 2610028H24 gene) #3 resulted in: GFP, % of control 63; viability (ATP), % of control 78.8. Depletion of Gpatch3 (G patch domain containing 3) #1 resulted in: GFP, % of control 83.2; viability (ATP), % of control 88.8. Gpatch3 (G patch domain containing 3) #2 showed GFP, % of control 111; viability (ATP), % of control 101. With knock-down of Gpatch3 (G patch domain containing 3) #3, the record shows GFP, % of control 85.2; viability (ATP), % of control 40.9.
